This experiment concerns the target Flag-Lgals3 (UniProt P17931). In words: affinity purification with mass spectrometry; whole-cell lysates immunoprecipitated with Flag antibodies; products analysed by mass spectrometry (IP-MS); cells not named.

Protein sequences, listed by entry. Tags and fused reporters are not part of them.
UniProt P17931: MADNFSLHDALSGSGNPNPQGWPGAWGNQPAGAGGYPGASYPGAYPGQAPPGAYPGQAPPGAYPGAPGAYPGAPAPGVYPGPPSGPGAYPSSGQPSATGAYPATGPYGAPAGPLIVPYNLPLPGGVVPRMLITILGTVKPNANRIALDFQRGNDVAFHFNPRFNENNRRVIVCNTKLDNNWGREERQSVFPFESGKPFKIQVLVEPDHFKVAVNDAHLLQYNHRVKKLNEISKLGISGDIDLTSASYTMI

Results are given in words; binding and its absence hold for the method and conditions named. In cells and extracts the contact can be indirect. These calls come from enrichment with a bait or labelling near it, and not all partners need be listed.

The results in this text go back to publication PMC11947994.

B1: Abhd5 (protein, UniProt Q8WTS1 1-349)
chain: MAAEEEEVDSADTGERSGWLTGWLPTWCPTSISHLKEAEEKMLKCVPCTYKKEPVRISNGNKIWTLKFSHNISNKTPLVLLHGFGGGLGLWALNFGDLCTNRPVYAFDLLGFGRSSRPRFDSDAEEVENQFVESIEEWRCALGLDKMILLGHNLGGFLAAAYSLKYPSRVNHLILVEPWGFPERPDLADQDRPIPVWIRALGAALTPFNPLAGLRIAGPFGLSLVQRLRPDFKRKYSSMFEDDTVTEYIYHCNVQTPSGETAFKNMTIPYGWAKRPMLQRIGKMHPDIPVSVIFGARSCIDGNSGTSIQSLRPHSYVKTIAILGAGHYVYADQPEEFNQKVKEICDTVD
As for B1, the binding result is reported as “binds”.

B2: Slc16A7 (protein, UniProt O60669 1-478)
chain: MPPMPSAPPVHPPPDGGWGWIVVGAAFISIGFSYAFPKAVTVFFKEIQQIFHTTYSEIAWISSIMLAVMYAGGPVSSVLVNKYGSRPVVIAGGLLCCLGMVLASFSSSVVQLYLTMGFITGLGLAFNLQPALTIIGKYFYRKRPMANGLAMAGSPVFLSSLAPFNQYLFNTFGWKGSFLILGSLLLNACVAGSLMRPLGPNQTTSKSKNKTGKTEDDSSPKKIKTKKSTWEKVNKYLDFSLFKHRGFLIYLSGNVIMFLGFFAPIIFLAPYAKDQGIDEYSAAFLLSVMAFVDMFARPSVGLIANSKYIRPRIQYFFSFAIMFNGVCHLLCPLAQDYTSLVLYAVFFGLGFGSVSSVLFETLMDLVGAPRFSSAVGLVTIVECGPVLLGPPLAGKLVDLTGEYKYMYMSCGAIVVAASVWLLIGNAINYRLLAKERKEENARQKTRESEPLSKSKHSEDVNVKVSNAQSVTSERETNI
On to B2, for which the binding entry was “binds”.
